In the supplement of paper PMC8256030:
Several values for one entry are separate records, joined by “and”; a condition that tells them apart may be missing. Equal entries are not always repeated. Structures can show the parent of a compound that is named as a salt. Some of the results follow. Single values are uncertain here, since repeats match poorly.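 HEK293T cells were given each compound shortly before transfection with a reporter in which red mCherry is followed by the SARS-CoV-2 frameshift element and then GFP in the −1 frame, so GFP appears only after frameshifting.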

Experiments:
[1] = tested on: SARS-CoV-2 -1 PRF reporter mCherry-FSE-GFP(-1); test: mCherry (red) intensity as percent of control; higher = higher upstream reporter expression; details: 10 µM; 24 h; HEK293T
[2] = tested on: SARS-CoV-2 -1 PRF reporter mCherry-FSE-GFP(-1); test: percent effect, decrease of GFP/mCherry ratio (-1 PRF reporter) relative to controls; higher = stronger frameshift inhibition; details: 10 µM; 24 h; HEK293T

Compound | mCherry [1] | percent effect [2]
CCN(CC)CCNC(=O)c1c(C)[nH]c(/C=C2\C(=O)Nc3ccc(F)cc32)c1C [sunitinib] | 101% and 100% | -17.3% and -9.52%
CCCN(CCC)CCc1cccc2c1CC(=O)N2 | 96.1% | -3.39%
O=C(c1cc(Cc2n[nH]c(=O)c3ccccc23)ccc1F)N1CCN(C(=O)C2CC2)CC1 [Olaparib] | 98.8% | 0.0469%
NCCCC[C@H](N)C(=O)O [lysine] | 93.2% | 0.339%
O=C(O)CCNC(=O)c1ccccc1 [betamipron] | 115% | 0.142%
CC=CC1=C(C(=O)O)N2C(=O)[C@@H](NC(=O)[C@H](N)c3ccc(O)cc3)[C@H]2SC1 [Cefprozil] | 103% | -0.279%
O=C(O)COc1nn(Cc2ccccc2)c2ccccc12 [bendazac] | 96.9% | -0.513%
CN[C@H]1CC[C@@H](c2ccc(Cl)c(Cl)c2)c2ccccc21 [sertraline] | 105% | -4.91%
CCC(c1ccccc1)c1c(O)c2ccccc2oc1=O (configuration not stated) [phenprocoumon] | 95.5% | -1.95%
CC(=O)Oc1cccc(O)c1 | 98.2% | -6.45%
C=C(C)[C@@H]1CC[C@]2(C(=O)O)CC[C@]3(C)[C@H](CC[C@@H]4[C@@]5(C)CC[C@H](OC(=O)CC(C)(C)C(=O)O)C(C)(C)[C@@H]5CC[C@]43C)[C@@H]12 [bevirimat] | 126% | 2.28%
Clc1ccccc1C(c1ccccc1)(c1ccccc1)n1ccnc1 [clotrimazole] | 59.8% | -14.9%
O=C1CN2Cc3c(ccc(Cl)c3Cl)N=C2N1 [Anagrelide] | 84.6% | -4.68%
CC1(C)S[C@@H]2[C@H](NC(=O)[C@H](C(=O)O)c3ccsc3)C(=O)N2[C@H]1C(=O)O [ticarcillin] | 86% | -1.54%
OC[C@@H](O)[C@@H](O)[C@H](O)[C@H](O)CO | 96.3% | -8.38%
CCCC1C(=O)N2C(N(C)C)=Nc3ccc(C)cc3N2C1=O (configuration not stated) [azapropazone] | 66.6% | -1%
CC(C)(C)C(=O)C(Oc1ccc(Cl)cc1)n1ccnc1 (configuration not stated) [climbazole] | 93.4% and 88.3% | -4.19% and 0.822%
CN(C)[C@@H]1C(=O)C(C(N)=O)=C(O)[C@@]2(O)C(=O)C3=C(O)c4c(O)ccc([N+](=O)[O-])c4C[C@H]3C[C@@H]12 [nitrocycline] | 68.6% | -0.715%
N#Cc1cc(I)c(O)c([N+](=O)[O-])c1 [nitroxinil] | 85.2% | -4.01%
Cc1onc(NS(=O)(=O)c2ccccc2-c2ccc(-c3ncco3)cc2CN(C)C(=O)CC(C)(C)C)c1C [edonentan] | 80.8% | -4.07%
CN1C(C(=O)Nc2ccccn2)=C(O)c2sc(Cl)cc2S1(=O)=O [Lornoxicam] | 82% | -2.15%
Cc1scc2c1N(C(=O)CN1CCN(C)CC1)c1ccccc1NC2=O [Telenzepine·2HCl] | 109% | 1.83%
Cc1nc2n(c(=O)c1CCN1CCC(c3noc4cc(F)ccc34)CC1)CCCC2O (configuration not stated) [paliperidone] | 87.5% and 110% | -1.08% and -4.56%
O=C1CN2Cc3c(ccc(Cl)c3Cl)N=C2N1 [anagrelide] | 91.3% | -4.02%
C=CS(=O)(=O)O [apolate] | 93.9% | -12.2%
NC(=O)NS(=O)(=O)c1ccc(N)cc1 [sulfacarbamide] | 96.9% | -0.152%

Compound | mCherry [1] | percent effect [2]
CCC1(CC)COC(=O)NC1=O [diethadione] | 113% | -13.8%
O=C(O)[C@@H](c1ccc(OCc2ccc3ccccc3n2)cc1)C1CCCC1 [veliflapon] | 70.6% | -5.12%
NCCCCC(N)C(=O)O (configuration not stated) | 106% and 116% | -2.44% and -0.263%
CC1(C)OC(=O)Nc2ccc(Br)cc21 [brofoxine] | 115% | -4.42%
N#C[C@@H]1C[C@@H]2C[C@@H]2N1C(=O)[C@@H](N)C12CC3CC(CC(O)(C3)C1)C2 | 104% | 2.26%
CNC1Cc2ccccc2N(C)c2ccccc21 (configuration not stated) [metapramine] | 70.9% | 0.0203%
CNCCCC1c2ccccc2C=Cc2ccccc21 [protriptyline] | 115% | 2.59%
COc1c(N2C[C@@H]3CCCN[C@@H]3C2)c(F)cc2c(=O)c(C(=O)O)cn(C3CC3)c12 | 110% | 2.51%
CC[C@H](C)[C@H](N)C1=N[C@H](C(=O)N[C@@H](CC(C)C)C(=O)N[C@H](CCC(=O)O)C(=O)N[C@H](C(=O)N[C@H]2CCCCNC(=O)[C@H](CC(N)=O)NC(=O)[C@@H](CC(=O)O)NC(=O)[C@H](Cc3cnc[nH]3)NC(=O)[C@@H](Cc3ccccc3)NC(=O)[C@H]([C@@H](C)CC)NC(=O)[C@@H](CCCN)NC2=O)[C@@H](C)CC)CS1 [Bacitracin] | 96.5% | 0.771%
CC(C)(C)[C@]1(O)CCN2C[C@H]3c4ccccc4CCc4cccc(c43)[C@@H]2C1 [butaclamol] | 89.5% | -0.739%
OCCN1CCN(CCCN2c3ccccc3Sc3ccc(Cl)cc32)CC1 [perphenazine] | 136% | -4.48%
CC(C)(C(=O)O)c1ccc(C(O)CCCN2CCC(C(O)(c3ccccc3)c3ccccc3)CC2)cc1 (configuration not stated) | 86.5% | 0.212%
C[C@@H](O)[C@H]1C(=O)N2C(C(=O)O)=C(S[C@@H]3CN[C@H](CNS(N)(=O)=O)C3)[C@H](C)[C@H]12 [doripenem] | 97.1% | -1.71%
Cc1cccc(C)c1NC(=O)c1ccc(N)cc1 [ameltolide] | 116% | -0.778%
CC(C)NCC(O)COc1ccc(CCOCC2CC2)cc1 (configuration not stated) [Betaxolol·HCl] | 84.6% | 9%
O=S(=O)(O)c1cc(I)c(O)c2ncccc12 | 110% | 3.45%
CCc1nn(CCCN2CCN(c3cccc(Cl)c3)CC2)c(=O)n1CCOc1ccccc1 [Nefazodone] | 38.6% | -8.97%
Oc1c(Br)cc(Br)c2cccnc12 [broxyquinoline] | 99.6% | -1.49%
CN1CCc2c(c3ccccc3n2Cc2ccccc2)C1 | 108% | 1.01%
C[N+](C)(C)CCOC(N)=O [carbachol] | 91.5% and 99.6% | -1.3% and 4.44%
OCCN1CCN(CC/C=C2/c3ccccc3Sc3ccc(Cl)cc32)CC1 [zuclopenthixol] | 40.2% | -4.67%
OC[C@@H](O)[C@@H](O)CO | 104% | 1.45%
Cc1cc(=O)[nH]c(=S)[nH]1 | 112% | -0.219%
CN1C(=O)C(N2CCCCC2)S/C1=C\C(=O)O (configuration not stated) [ozolinone] | 89.2% | -5.41%
CCC(=O)O[C@]1(C(=O)SCF)[C@H](C)C[C@H]2[C@@H]3C[C@H](F)C4=CC(=O)C=C[C@]4(C)[C@@]3(F)[C@@H](O)C[C@@]21C | 103% | -0.479%
O=c1oc2c(O)c(O)cc3c(=O)oc4c(O)c(O)cc1c4c23 [ellagic acid] | 15.7% | -0.395%

Full records from above.
COc1c(N2C[C@@H]3CCCN[C@@H]3C2)c(F)cc2c(=O)c(C(=O)O)cn(C3CC3)c12 is entered as mCherry [1]: 110%; percent effect [2]: 2.51%
C[C@@H](O)[C@H]1C(=O)N2C(C(=O)O)=C(S[C@@H]3CN[C@H](CNS(N)(=O)=O)C3)[C@H](C)[C@H]12 [doripenem] is entered as mCherry [1]: 97.1%; percent effect [2]: -1.71%
CCC(=O)O[C@]1(C(=O)SCF)[C@H](C)C[C@H]2[C@@H]3C[C@H](F)C4=CC(=O)C=C[C@]4(C)[C@@]3(F)[C@@H](O)C[C@@]21C is entered as mCherry [1]: 103%; percent effect [2]: -0.479%
C[N+](C)(C)CCOC(N)=O [carbachol] is entered as mCherry [1]: 91.5% and 99.6%; percent effect [2]: -1.3% and 4.44%

Further results follow.

Compound | mCherry [1] | percent effect [2]
C[C@H]1c2cccc(O)c2C(O)=C2C(=O)[C@]3(O)C(O)=C(C(N)=O)C(=O)[C@@H](N(C)C)[C@@H]3[C@@H](O)[C@@H]21 | 103% | -6.96%
Fc1ccc(C(c2ccc(F)cc2)N2CCN(C/C=C/c3ccccc3)CC2)cc1 [flunarizine] | 93.3% and 69.4% | -1.82% and -7.29%
COC(=O)Nc1nc2cc(OS(=O)(=O)c3ccc(F)cc3)ccc2[nH]1 [luxabendazole] | 70.4% | -13.8%
COC(=O)c1ccccc1O [Methyl salicylate] | 70.7% | -3.19%
CNC(=O)OCc1cccc(COC(=O)NC)n1 [pyricarbate] | 94.5% | -0.346%
Cn1cncc1[C@@](N)(c1ccc(Cl)cc1)c1ccc2c(c1)c(-c1cccc(Cl)c1)cc(=O)n2C [tipifarnib] | 58.5% | -3.79%
Brc1c(NC2=NCCN2)ccc2nccnc12 [brimonidine] | 123% | -1.7%
CCn1cc(C(=O)O)c(=O)c2cnc(N3CCNCC3)nc21 [pipemidic acid] | 107% | -4.13%
C[C@@H](O)[C@H]1C(=O)N2C(C(=O)O)=C(S[C@@H]3CN[C@H](C(=O)N(C)C)C3)[C@H](C)[C@H]12 | 106% | -4.77%
N=C(N)NCCN1CCCCCCC1 [guanethidine] | 90.8% | -2.5%
CC1(C)OC(=O)C(OCC2CC2)=C1c1ccc(S(C)(=O)=O)cc1 [firocoxib] | 111% | 0.36%
O=C(O)COCCN1CCN([C@H](c2ccccc2)c2ccc(Cl)cc2)CC1 | 93.8% | 0.998%
C[S+](CC[C@H](N)C(=O)[O-])C[C@H]1O[C@@H](n2cnc3c(N)ncnc32)[C@H](O)[C@@H]1O (some centres not stated) [ademetionine] | 95.7% | 1.33%
CC(=O)CC(c1ccccc1)c1c(O)c2ccccc2oc1=O (configuration not stated) | 104% | -3.21%
O=C1CC2(CCCC2)CC(=O)N1CCCCN1CCN(c2ncccn2)CC1 [buspirone] | 87% and 76.1% | 1.65% and -10.9%
Nc1nc(N)c2nc(CNc3ccc(C(=O)N[C@@H](CCC(=O)O)C(=O)O)cc3)cnc2n1 | 89.8% | 1.51%
Cc1cc(O)c(Cl)c(C)c1Cl [dichloroxylenol] | 78.7% | -7.32%
Nc1nc(/C(=C/CC(=O)O)C(=O)N[C@@H]2C(=O)N3C(C(=O)O)=CCS[C@H]23)cs1 [Cedax] | 104% | -3.74%
CN1CCN2c3ccccc3Cc3ccccc3C2C1 (configuration not stated) [Mianserin·HCl] | 330% | 1.46%
CN1CCN(CCCN2c3ccccc3Sc3ccc(Cl)cc32)CC1 [prochlorperazine] | 31.6% | -8.58%
CNC(=O)[C@@H](NC(=O)[C@H](CC(C)C)[C@H](O)C(=O)NO)C(C)(C)C [Marimastat] | 102% | -2.64%
O=c1[nH]c2ccccc2n1CCCN1CCN(C(c2ccccc2)c2ccccc2)CC1 [oxatomide] | 82.4% | 1.44%
O=C(O[C@@H]1C[C@@H]2C[C@H]3C[C@H](C1)N2CC3=O)c1c[nH]c2ccccc12 [dolasetron] | 96.3% | -2.32%
COc1ccc2c(c1)CCC(c1ccccc1)=C2c1ccc(OCCN2CCCC2)cc1 [nafoxidine] | 45.2% | -5.1%
